We go through 3 substances from doi:10.1101/2022.08.09.503273.

Results are given in words; binding and its absence hold for the method and conditions named. For part of these data: Binding seen in cells or lysates may run through a third protein. Some entries that bind do so weakly or less than the wild type.

Assay [1] has as its target PTBP1-WT protein, Flag- or HA-tagged (human) (UniProt P26599). Kind of assay: co-IP.
The target of assay [2] is purified PTBP1-WT protein (human) (UniProt P26599). In words: SDS-PAGE of purified protein.
In assay [3] the target is PTBP1-C23S protein, Flag- or HA-tagged (human) (UniProt P26599). In words: co-IP.

Consider “PTBP1-WT protein, Flag- or HA-tagged (from UniProt P26599 1-557)”, for which the binding result in assay [1] was “binds”.

Consider “purified PTBP1-WT protein (from UniProt P26599 1-557)”, for which, in assay [2], the binding result is given as “binds”.

Regarding “PTBP1-C23S protein, Flag- or HA-tagged (from UniProt P26599 1-557)”, the binding result in assay [3] is on record as “no binding”.
